Assay results taken from PubChem BioAssay AID256 (DTP/NCI, 2004).
The list does not hold the whole screen: it is rich in T/C values a quarter to a half above the control, in often repeated tests (any T/C) and in doses without a T/C. Further doses and runs are listed elsewhere. T/C gives the treated animals as a percentage of the vehicle group. Some entries give survivors of the animals treated and no T/C: the source files T/C as zero there, which appears to mark a toxic dose or a test without result, not a measured value. Some doses without a T/C left all or most animals alive at the check, yet need not have been tolerated: survival well below the control is almost never listed, so the zero probably covers shortened survival too. Counts of survivors are from the toxicity check (mostly the fifth day) where no day follows; animals may have died later. Schedules are NCI's codes, read here as Q, the interval in days (D) or hours (H), X, the number of doses. Some doses were run more than once; their values stand side by side, smallest first. Counts like (3×) say how often a value occurs here. For survival time, this PubChem deposit counts one and a half times the control or more as active, and values a quarter to a half above the control carry no call in these data; other NCI protocols may use other cut-offs. Some T/C values are followed by the survivors on the day toxicity was checked, most often the fifth; where none is given, no animal had died by that day. Some schedule codes hold Z or #, which are not explained here.

System: CD2F1 mice, L1210 leukemia ip, survival T/C
Assay: NCI In Vivo Anticancer Drug Screen. Data for tumor model L1210 Leukemia (intraperitoneal) in CD2F1 (CDF1) mice
Conditions: T/C endpoint: mean survival time, higher T/C = longer survival
Outline: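 Each value reflects a quotient of treated over vehicle control outcomes in mice with a transplanted tumor.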

For `S=c1nc[nH]c2nc[nH]c12`, the T/C (dose: 50.0 mg/kg/injection, schedule: Q04DX003 (ip), vehicle: alkali diluted with saline) was 119, 120, 121, 122 % of control, the T/C (dose: 50.0 mg/kg/injection, schedule: Q04DX003 (ip), vehicle: alkali diluted with water) was 146 % of control and the T/C (dose: 60.0 mg/kg/injection, schedule: Q04DX003 (ip), vehicle: saline) was 138 % of control. The T/C (dose: 60.0 mg/kg/injection, schedule: Q## X002 (ip), vehicle: saline) was 135 % of control, the T/C (dose: 80.0 mg/kg/injection, schedule: Q01DX001 (ip), vehicle: alkali diluted with water) was 137 % of control and the T/C (dose: 80.0 mg/kg/injection, schedule: Q01DX005 (ip), vehicle: alkali diluted with saline, evaluated on day 30) was 130, 150, 156, 165, 172 % of control. For the same compound, the T/C (dose: 80.0 mg/kg/injection, schedule: Q01DX005 (ip), vehicle: alkali diluted with saline, evaluated on day 45) was 160 % of control, the T/C (dose: 80.0 mg/kg/injection, schedule: Q01DX005 (ip), vehicle: alkali diluted with water, evaluated on day 30, list 1 of 2) was 107, 125, 127, 128 (2×), 130, 134, 136, 136 [5 of 6 alive], 139, 140, 141, 144, 145 (3×), 148 (2×), 149, 150, 151, 152, 153 (3×), 155 (2×), 156, 160, 162, 163, 166, 170, 172 [5 of 6 alive], 175, 177, 181 [5 of 6 alive], 183, 187, 225 % of control and the T/C (dose: 80.0 mg/kg/injection, schedule: Q01DX005 (ip), vehicle: alkali diluted with water, evaluated on day 30, list 2 of 2) was 97, 110, 121, 125, 128 (2×), 129, 134 (2×), 136, 139 (2×), 140, 142, 144, 145 (2×), 147, 148 (2×), 149, 150, 151, 152, 153 (2×), 154, 155, 156, 158, 162 (2×), 163, 167, 170, 172, 176, 180, 181, 185, 197 % of control. For the same compound, the T/C (dose: 80.0 mg/kg/injection, schedule: Q01DX005 (ip), vehicle: alkali diluted with water, evaluated on day 45) was 136 % of control, the T/C (dose: 80.0 mg/kg/injection, schedule: Q01DX005 (ip), vehicle: other, evaluated on day 30, list 1 of 2) was 122, 125, 130, 135, 138, 141 (3×), 142, 144 (2×), 146, 147, 150, 151, 151 [5 of 6 alive], 152, 153, 154, 155, 156, 157 (3×), 159, 160 (2×), 162, 166, 167, 168, 170, 173, 178 % of control and the T/C (dose: 80.0 mg/kg/injection, schedule: Q01DX005 (ip), vehicle: other, evaluated on day 30, list 2 of 2) was 120, 125, 129, 131, 137, 139, 141 (3×), 143, 144, 145, 146, 147, 151 (2×), 152, 153 (2×), 154, 156 (2×), 157 (2×), 159 (2×), 160, 162 (2×), 167, 168, 170, 171, 174, 182 % of control. The T/C (dose: 80.0 mg/kg/injection, schedule: Q01DX005 (ip), vehicle: other, evaluated on day 35) was 139 % of control, the T/C (dose: 80.0 mg/kg/injection, schedule: Q01DX005 (ip), vehicle: other, evaluated on day 45) was 186 % of control and the T/C (dose: 80.0 mg/kg/injection, schedule: Q01DX005 (ip), vehicle: sodium bicarbonate) was 126 % of control. For the same compound, the T/C (dose: 80.0 mg/kg/injection, schedule: Q01DX009 (ip), vehicle: other) was 131 % of control, the T/C (dose: 80.0 mg/kg/injection, schedule: Q03DX003 (ip), vehicle: saline) was 131 % of control and the T/C (dose: 80.0 mg/kg/injection, schedule: Q04DX003 (ip), vehicle: saline) was 132 % of control. The T/C (dose: 90.0 mg/kg/injection, schedule: Q04DX003 (ip), vehicle: alkali diluted with saline) was 135 % of control, the T/C (dose: 90.0 mg/kg/injection, schedule: Q04DX003 (ip), vehicle: saline) was 143 % of control and the T/C (dose: 90.0 mg/kg/injection, schedule: Q## X009 (ip), vehicle: saline) was 127 % of control. For the same compound, the T/C (dose: 100.0 mg/kg/injection, schedule: Q04DX003 (ip), vehicle: alkali diluted with saline) was 136 (2×), 145, 150 % of control, the T/C (dose: 100.0 mg/kg/injection, schedule: Q04DX003 (ip), vehicle: alkali diluted with water) was 132 and 143 % of control and the T/C (dose: 160.0 mg/kg/injection, schedule: Q01DX001 (ip), vehicle: alkali diluted with water) was 125 % of control. For the same compound, the T/C (dose: 160.0 mg/kg/injection, schedule: Q01DX005 (ip), vehicle: alkali diluted with saline, evaluated on day 30) was 122, 134, 142, 145, 150 % of control, the T/C (dose: 160.0 mg/kg/injection, schedule: Q01DX005 (ip), vehicle: alkali diluted with saline, evaluated on day 45) was 151 % of control and the T/C (dose: 160.0 mg/kg/injection, schedule: Q01DX005 (ip), vehicle: alkali diluted with water, evaluated on day 30, list 1 of 2) was 86 (2×), 87, 90, 90 [5 of 6 alive], 93, 94, 97 [5 of 6 alive], 101, 103, 106, 108 [5 of 6 alive], 110 [5 of 6 alive], 120, 125 (2×), 127, 135, 137, 139, 142, 146, 148, 153, 154, 156, 162, 167, 175 [5 of 6 alive], 182, 204 % of control. For the same compound, the T/C (dose: 160.0 mg/kg/injection, schedule: Q01DX005 (ip), vehicle: alkali diluted with water, evaluated on day 30, list 2 of 2) was 86, 87, 90 (2×), 91, 94 [5 of 6 alive], 97 [4 of 6 alive], 101 (2×), 104, 107, 109, 117, 124, 125, 126, 130, 137 [5 of 6 alive], 138, 141, 144, 147, 151 [4 of 6 alive], 153, 155, 161, 166, 173 [5 of 6 alive], 181, 195, 227 % of control [5 of 6 alive], the T/C (dose: 160.0 mg/kg/injection, schedule: Q01DX005 (ip), vehicle: alkali diluted with water, evaluated on day 45) was 172 % of control and the survivor count (dose: 160.0 mg/kg/injection, schedule: Q01DX005 (ip), vehicle: alkali diluted with water) was 0 of 6, 1 of 6, 1 of 3, 2 of 6, 3 of 6, 5 of 6 (2×), 6 of 6 (2×). For the same compound, the T/C (dose: 160.0 mg/kg/injection, schedule: Q01DX005 (ip), vehicle: other, evaluated on day 30) was 86 [4 of 6 alive], 88 (2×), 90, 92, 93 [2 of 3 alive], 94, 94 [4 of 6 alive], 95, 98, 100, 100 [5 of 6 alive], 104 [5 of 6 alive], 106 (2×), 107 (2×), 107 [4 of 6 alive], 107 [5 of 6 alive] (2×), 108, 110, 117, 117 [5 of 6 alive], 122 [2 of 3 alive], 123, 125, 125 [4 of 6 alive], 127, 127 [5 of 6 alive], 128, 129, 129 [5 of 6 alive], 131 (2×), 135, 137 [4 of 6 alive], 138 [5 of 6 alive], 139 (2×), 140, 143, 143 [5 of 6 alive], 144 (2×), 145 [5 of 6 alive], 155, 159, 166, 176, 186 % of control, the T/C (dose: 160.0 mg/kg/injection, schedule: Q01DX005 (ip), vehicle: other, evaluated on day 35) was 118 % of control and the survivor count (dose: 160.0 mg/kg/injection, schedule: Q01DX005 (ip), vehicle: other) was 0 of 6, 2 of 6, 3 of 6, 2 of 3, 4 of 6, 5 of 6, 3 of 3, 6 of 6 (2×). For the same compound, the T/C (dose: 160.0 mg/kg/injection, schedule: Q01DX005 (ip), vehicle: saline) was 145 % of control and the T/C (dose: 160.0 mg/kg/injection, schedule: Q01DX005 (ip), vehicle: sodium bicarbonate) was 149 % of control.
